Laboratory results: PubChem BioAssay AID1307 (SRMLSC, 2008)
Hit rate of the full screen: of about 1,200 compounds, fewer than 10 were called active.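 How the source made its calls: active means inhibition reaching a set limit at one or more tested concentrations; inactive means inhibition under that limit at every dose.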 The list shows a part of the results. Measured potencies and affinities stand elsewhere.

Experiment: yeast RAM network inhibitors, dose response, S. cerevisiae (AID 1307);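 further: 0% = DMSO vehicle wells and 100% = 10 µM 1-NA-PP1 control; higher inhibition means more yeast growth since RAM block rescues cells from 5-FOA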
Conditions: S. cerevisiae RAM network URA3 reporter, 5-FOA growth OD615, hits give high values, yeast express analog-sensitive mutant Cbk1 kinase; at 100 µM unless noted

Max inhibition, inactive:
O=C(C(Sc1ccccc1)c1ccccc1)N1CCN(c2ccccc2F)CC1 (configuration not stated) 0.48% [setting not given]
CCCCOc1ccc(C(=O)N/C(=C\c2ccc(OC)cc2)C(=O)OCc2ccco2)cc1 3.36% [at 50 µM]
COc1cccc(CSc2nc3ccccc3cc2C=O)c1 1.68% [at 50 µM]
S=C(c1ccc(-c2ccccc2Cl)o1)N1CCOCC1 2.62% [at 0.196 µM]
CCCn1c(=O)c(C(=O)NCc2ccc(OC)c(OC)c2)c(O)c2ccccc21 1.62%
O=C(CSc1nc2c(cnn2-c2ccccc2)c(=O)[nH]1)N1N=C(c2cccs2)CC1c1ccc(F)cc1 (configuration not stated) 13.5%
COc1ccc(O[C@H]2C=C[C@@H](c3ccccc3)O[C@@H]2CO/N=C/C[C@@H]2C=C[C@H](OC(C)=O)[C@@H](COC(C)=O)O2)cc1 1.56% [at 0.196 µM]
Cc1ccc(O)c(C(=O)/C=C/c2ccc3c(c2)OCCCO3)c1 2.83%
CCN(CC(O)CON=C1c2ccccc2-c2ccccc21)S(=O)(=O)c1ccc(C)cc1 (configuration not stated) 7.91% [at 50 µM]
COCC(C)n1c(SCc2ccc(OC)c(F)c2)nc2ccccc2c1=O (configuration not stated) 3.92% [at 1.563 µM]
CCCCCCCCC(=O)NNC(=O)c1c(O)c2ccccc2n(CC)c1=O 1.2% [at 3.125 µM]
N#C/C(=C\C1=C(N2CCOCC2)C(=C\c2ccccc2)/CC1)C(=O)Nc1ccccc1F 4.22%
CCCc1nn(C)c(C(=O)Nc2ccc(C)c(C)c2)c1Cl 1.06% [at 0.782 µM]
O=C(c1ccccc1)c1sc(N2CCCCCC2)nc1-c1ccccc1 2.72%
Cc1cccc(OCc2nnc(SCC(=O)c3ccccc3)o2)c1 1.64% [at 6.25 µM]
COc1cc(/C=C(\C#N)c2ccccn2)ccc1OCc1ccc(Cl)cc1 1.91% [at 6.25 µM]
CCOC(=O)c1c(-c2ccccc2)csc1NC(=O)CSc1ccccc1 4.04%
CCCCCOC(=O)C1C(c2ccccc2)C(C(=O)O)C1c1ccccc1 (configuration not stated) 2.33% [at 25 µM]
CCOC(=O)CCCSc1nc(-c2ccc3c(c2)OCO3)cc(C(F)(F)F)c1C#N 3.71% [at 25 µM]
Cc1cccc(Nc2nnc(SCC3CCCCO3)s2)c1 (configuration not stated) 4.62% [at 0.196 µM]
Cc1c(N=Nc2ccc(N(C)C)cc2)c(=O)n(-c2ccccc2)n1C 20.4%
O=C(c1cc(COc2ccc(F)cc2Cl)on1)N1CCCC(c2ccccc2)C1 (configuration not stated) 6.3% [at 25 µM]
Cc1ccc(-n2c(SCC(=O)Nc3cccc(S(=O)(=O)NC4=NCCCCC4)c3)nc3ccccc3c2=O)cc1C 11%
COc1cccc(CNC(=O)CNC(=S)N(Cc2ccccc2)Cc2ccccc2F)c1 3.12% [at 50 µM]
COc1ccc(/C=C/C(=O)Nc2cc(S(=O)(=O)N3CCCCC3)ccc2N2CCCCC2)cc1OC 15.4%
CCOc1ccc(-c2nn(-c3ccccc3)cc2/C=C2\SC(=S)N(Cc3ccco3)C2=O)cc1 5.18%
CCn1cc(C(=O)OCC(=O)c2ccccc2)c(=O)c2ccc(C)nc21 6.73% [at 25 µM]
CCCCN(CCCC)S(=O)(=O)c1ccc(NS(=O)(=O)c2ccc(NC(C)=O)cc2)cc1 4.62%
N#Cc1ccsc1NC(=O)COC(=O)CCCSc1nc2ccccc2s1 2.77% [at 50 µM]
N#C/C(=C\c1ccc(-c2ccc(S(=O)(=O)N3CCOCC3)cc2)o1)C(=O)NC1CC1 2.77% [at 12.5 µM]
O=C(O)CSc1nc(-c2ccc(Cl)cc2)nc2c1oc1ccccc12 6.31% [at 50 µM]
CCN=c1scc(-c2cccs2)n1/N=C/c1cc(OC)ccc1O 3.13% [at 50 µM]
Cc1ccc(S(=O)(=O)c2c(CO)c(-c3ccccc3)nn2C)cc1 3.46% [at 6.25 µM]
C/C=C/c1ccc(OCC(=O)OCc2csc(Nc3ccc(C)cc3)n2)c(OC)c1 2.31% [at 50 µM]
CCOC(=O)c1c(C)[nH]c(C)c1C(=O)COC(=O)/C=C/c1cccc(C(F)(F)F)c1 3.23% [at 3.125 µM]
CCCN(CC1CC1)C(=O)COC(=O)c1ccc(CNS(=O)(=O)c2ccc(F)c(Cl)c2)cc1 2.14% [at 0.196 µM]
Cc1cc(Oc2ccc(Cl)cc2)nc(-c2ccccc2O)n1 2.24%
CCCCCOP(=O)(OCCCCC)C1(NS(=O)(=O)c2ccccc2)C=CC(=O)c2ccccc21 (configuration not stated) 2.83%
CCCCCCOC(=O)c1ccc(NC(=O)c2cc(OC)c(OC)c(OC)c2Br)cc1 3.97% [at 50 µM]
Cc1ccc(NC(=O)c2oc3ccc(S(=O)(=O)N4CCC5(CC4)OCCO5)cc3c2C)cc1C 5.31%
Cc1ccc(C(=O)c2cc3ccccc3o2)cc1C 2.43% [at 0.196 µM]
Cc1ccc(C(C)C)c(OCC(=O)OCc2c(C)noc2C)c1 1.54% [at 1.563 µM]
Cc1ccc(SCC(=O)N2c3ccccc3Sc3ccccc32)cc1 1.96% [at 12.5 µM]
CCC(C)c1ccc(NC(=S)NCc2ccccc2OC)cc1 (configuration not stated) 5.65%
CC(C)C[C@@H](CN(C)N=O)N(C[C@H](Cc1ccccc1)N(CCc1ccccc1)N=O)N=O 5.42% [at 50 µM]
CCOC(=O)c1cc(C(C)C)sc1NC(=O)COC(=O)CCS(=O)(=O)c1ccccc1 3.24% [at 50 µM]
CCOc1ccc(S(=O)(=O)N(C)c2ccc(OCC(=O)OCc3c(C)noc3C)cc2)cc1 2.94% [at 12.5 µM]
CC1=NN(c2nc(-c3ccc(C)cc3)cs2)C(=O)C1N=Nc1ccc(C(N)=O)cc1 (configuration not stated) 10.3%
COC(=O)[C@H](Cc1ccccc1)NC(=O)[C@@]1(C)C[C@@H]1[C@@H](NC(=O)OCc1ccccc1)c1ccccc1 5.9%
CC(C)CSc1nc(N2CCOCC2)c2c(c1C#N)CC(C)(C)SC2 3.89% [at 50 µM]
C=C(C)COc1ccc(-c2[nH]ncc2-c2ccc(OC)c(OC)c2)c(O)c1 2.65% [at 50 µM]
O=C(NCc1ccccc1)C1=C[C@@H](c2ccc(C(F)(F)F)cc2)C[C@@H](OCc2ccc(CO)cc2)O1 6.79%
CCOC(=O)C1CN(S(=O)(=O)c2cccc(C(F)(F)F)c2)c2cc(CC(=O)OC)ccc2O1 (configuration not stated) 2.04% [at 25 µM]
CCOC(=O)c1c(NC(=O)CSc2nncs2)sc(C)c1-c1ccccc1 4.59%
O=C(NCCc1ccccc1)c1oc2ccccc2c1COc1ccccc1 3.75%
Fc1ccc(CSc2nnc(Cc3sc(-c4ccccc4)nc3-c3ccccc3)o2)cc1 5.66%
COCCOC(=O)c1c(C)oc2ccc(OC(=O)COc3c(F)c(F)c(F)c(F)c3F)cc12 2.19%
CC(O)C(NS(=O)(=O)c1ccc(Cl)cc1)C(=O)OCc1cc([N+](=O)[O-])cc2c1OCOC2 (configuration not stated) 3.12%
Cc1cc(Br)ccc1OCC(=O)N1CCCCCC1 1.81% [at 0.782 µM]
COc1ccc(-c2nc3ccccc3c(=O)n2CCOc2cccc(C)c2C)cc1 3.33% [at 0.196 µM]
CCOC(=O)C1(CCOc2ccccc2)CCN(C(=O)c2ccc(-n3cccn3)cc2)CC1 3.48% [at 25 µM]
CCOc1ccc2nc(SCC(=O)c3ccccc3)sc2c1 3% [at 0.196 µM]
Cc1cc(S(=O)(=O)N(Cc2cccs2)Cc2ccccc2F)ccc1-n1cnnn1 1.54% [at 1.563 µM]
Cc1cc(C)c(S(=O)(=O)Nc2ccc3c(c2)CCC3)c(C)c1 3.31%
CCOC(=O)c1c(NC(=O)CN2CCCc3ccccc32)sc(C)c1C 5.5%
O=S(=O)(Nc1nc2ccccc2nc1Nc1ccc2c(c1)OCCO2)c1cccs1 5.19%
O=C(CSc1nnc(-c2ccccc2Br)o1)N1CCc2ccccc2C1 2.54%
COc1cccc(/C=C2\SC(=S)N(C(Cc3ccccc3)C(=O)O)C2=O)c1 (configuration not stated) 1.2% [at 3.125 µM]
C=CCOC(=O)C1=C(C)NC(SCC)=C(C#N)C1c1ccc(Cl)cc1 (configuration not stated) 5.31% [at 0.391 µM]
O=C(CC1SC(=Nc2ccc(OC(F)F)cc2)N(CCC2=CCCCC2)C1=O)Nc1ccccc1F (configuration not stated) 3.9%
O=C(CNC(=S)N(Cc1ccccc1)Cc1ccccc1F)NCc1ccc(Cl)cc1 5.54%
COC(=O)c1c(CSc2ccc(C)c(C)c2)noc1C(=O)NCc1ccc(OC)cc1 1.58% [at 0.391 µM]
O=C(COC(=O)c1ccccc1Cc1ccccc1)Nc1ccc(SC(F)F)cc1 3.46%
Cc1cccc(OCC(=O)O/N=C(\N)Cc2ccc([N+](=O)[O-])cc2)c1 1.81% [at 50 µM]
O=C(COC(=O)CNS(=O)(=O)c1ccc2ccccc2c1)Nc1ccccc1Sc1ccccc1 3.35%
CCCC(=O)Oc1c(S(=O)(=O)c2ccc(C)cc2)c(C)nn1C(C)(C)C 3.54%
Clc1cccc(Cl)c1CSc1nnc(-c2sccc2-n2cccc2)o1 2.31%

Of the compounds above, 7 have four or more nitrogen atoms:
Max inhibition, inactive:
O=C(CSc1nc2c(cnn2-c2ccccc2)c(=O)[nH]1)N1N=C(c2cccs2)CC1c1ccc(F)cc1 (configuration not stated) 13.5%
Cc1c(N=Nc2ccc(N(C)C)cc2)c(=O)n(-c2ccccc2)n1C 20.4%
Cc1ccc(-n2c(SCC(=O)Nc3cccc(S(=O)(=O)NC4=NCCCCC4)c3)nc3ccccc3c2=O)cc1C 11%
CC(C)C[C@@H](CN(C)N=O)N(C[C@H](Cc1ccccc1)N(CCc1ccccc1)N=O)N=O 5.42% [at 50 µM]
CC1=NN(c2nc(-c3ccc(C)cc3)cs2)C(=O)C1N=Nc1ccc(C(N)=O)cc1 (configuration not stated) 10.3%
Cc1cc(S(=O)(=O)N(Cc2cccs2)Cc2ccccc2F)ccc1-n1cnnn1 1.54% [at 1.563 µM]
O=S(=O)(Nc1nc2ccccc2nc1Nc1ccc2c(c1)OCCO2)c1cccs1 5.19%
